Reference: PubChem BioAssay AID686938 (Drosophila RNAi Screening Center, 2013)

- Screen: 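Looking for CRAC channel components and the factors controlling them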 (primary screen)
- Cell system: Drosophila S2R+ cells
- Reagents: long dsRNA against Drosophila genes, about 0.25 µg dsRNA per well, roughly 10,000 cells
- Duration: 5 days of knock-down before the calcium assay
- Challenge: thapsigargin (SERCA pump blocker) to empty calcium stores; entry signal taken 4 min after adding it
- Measured: 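Per-well fluo-4 fluorescence in two replicates, unnormalised, measured in resting cells and 4 min after store depletion by the SERCA blocker thapsigargin; ratio of the two present in few wells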
- Direction: calcium entry signal: higher = stronger calcium signal after store depletion; entry to resting ratio: higher = more calcium entry relative to resting level; resting calcium signal: higher = higher resting calcium signal
- Hit rule: 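Hit if the duplicate-averaged plate z-score for entry over resting signal is under −3; wells with weak total dye signal (Fmax z < −2) or more than 5 off-targets removed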
- Meaning of the calls: active = strongly reduced calcium entry; inactive = no strong reduction
In all, the deposit lists about 23,000 reagents; this is an unselected part of those that have a named target and a result. Of all reagents, 75 (0.33%) were called active. 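Raw plate signals without normalisation; calls rest on plate z-scores that were not deposited; ratio present for only 364 wells.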 The numbers tell different reagents against one gene apart. A plus sign joins genes that one reagent is predicted to hit. Reagent sequences are not shown. Not given: the dose of the treatment.

| gene | reagent | calcium entry signal, replicate 1 (fluorescence units) | calcium entry signal, replicate 2 (fluorescence units) | entry to resting ratio | resting calcium signal, replicate 1 (fluorescence units) | resting calcium signal, replicate 2 (fluorescence units) | Call |
| --- | --- | --- | --- | --- | --- | --- | --- |
| Cyp1 (Cyclophilin 1) | 1 | 4.09e7 | 4.59e7 | – | 1.83e7 | 2.33e7 | inactive |
| CG2006 | 1 | 4.22e7 | 3.35e7 | – | 1.93e7 | 1.58e7 | inactive |
| Or35a (Odorant receptor 35a) | 1 | 5.07e7 | 3.58e7 | – | 2.16e7 | 1.74e7 | inactive |
| SP1173 | 1 | 4.01e7 | 3.43e7 | – | 2.76e7 | 1.48e7 | inactive |
| Mov10 (Mov10 RISC complex RNA helicase) | 1 | 4.41e7 | 3.46e7 | – | 2.08e7 | 1.71e7 | inactive |
| CG31861 | 1 | 3.02e7 | 4.14e7 | – | 1.75e7 | 1.96e7 | inactive |
| GstE7 (Glutathione S transferase E7) | 1 | 4.06e7 | 3.45e7 | – | 1.85e7 | 1.76e7 | inactive |
| PIG-O (Phosphatidylinositol glycan anchor biosynthesis class O) | 1 | 4.07e7 | 4.34e7 | – | 1.85e7 | 1.97e7 | inactive |
| rump (rumpelstiltskin) | 1 | 3.67e7 | 3.95e7 | – | 1.64e7 | 1.95e7 | inactive |
| CG16749 | 1 | 2.14e7 | 2.20e7 | – | 1.09e7 | 1.14e7 | inactive |
| stops (slow termination of phototransduction) | 1 | 4.77e7 | 5.68e7 | – | 2.34e7 | 2.39e7 | inactive |
| stops (slow termination of phototransduction) | 2 | 4.18e7 | 5.30e7 | – | 2.13e7 | 2.33e7 | inactive |
| stops (slow termination of phototransduction) | 3 | 4.43e7 | 5.78e7 | – | 2.18e7 | 2.50e7 | inactive |
| Irk3 (Inwardly rectifying potassium channel 3) | 1 | 6.41e7 | 2.93e7 | – | 2.90e7 | 1.23e7 | inactive |
| CG3626 | 1 | 3.12e7 | 4.13e7 | – | 1.42e7 | 1.79e7 | inactive |
| Gat (GABA transporter) | 1 | 6.15e7 | 5.52e7 | 2.1 | 2.90e7 | 2.51e7 | inactive |
| Sol1 | 1 | 3.17e7 | 3.09e7 | – | 1.66e7 | 1.68e7 | inactive |
| Sol1 | 2 | 3.40e7 | 3.59e7 | – | 1.60e7 | 1.92e7 | inactive |
| Sol1 | 3 | 3.07e7 | 3.40e7 | – | 1.55e7 | 1.73e7 | inactive |
| HDAC3 (Histone deacetylase 3) | 1 | 2.27e7 | 2.90e7 | – | 1.03e7 | 1.30e7 | inactive |
| Tm2 (Tropomyosin 2) | 1 | 3.74e7 | 6.92e7 | – | 1.97e7 | 6.05e7 | inactive |
| hpRNA:CR32207 (hairpin RNA:CR32207) | 1 | 3.79e7 | 3.17e7 | – | 1.87e7 | 1.48e7 | inactive |
| Impbeta11 + asRNA:CR43429 | 1 | 4.34e7 | 3.75e7 | – | 2.24e7 | 1.66e7 | inactive |
| CkIIalpha (casein kinase IIalpha) | 1 | 2.42e7 | 3.43e7 | – | 1.23e7 | 1.71e7 | inactive |
| CG14258 | 1 | 3.32e7 | 4.86e7 | – | 1.77e7 | 2.16e7 | inactive |
| CG31051 | 1 | 5.26e7 | 4.57e7 | – | 2.60e7 | 2.53e7 | inactive |
| Him (Holes in muscle) | 1 | 3.34e7 | 3.05e7 | – | 1.70e7 | 1.40e7 | inactive |
| IFT43 (Intraflagellar transport 43) | 1 | 3.88e7 | – | – | 1.98e7 | – | inactive |
| Trf4 (TBP-related factor 4) | 1 | 3.95e7 | 3.79e7 | – | 1.82e7 | 1.67e7 | inactive |
| Xpac (Xeroderma pigmentosum group A-like) | 1 | 3.49e7 | 4.58e7 | – | 1.57e7 | 1.97e7 | inactive |
| lncRNA:CR43451 (long non-coding RNA:CR43451) | 1 | 4.90e7 | 2.95e7 | – | 2.44e7 | 1.58e7 | inactive |
| Polr2K (RNA polymerase II, I and III subunit K) | 1 | 3.13e7 | 1.91e7 | – | 1.44e7 | 1.01e7 | inactive |
| Cog7 (Component of oligomeric golgi complex 7) | 1 | 3.29e7 | 5.58e7 | – | 1.73e7 | 2.21e7 | inactive |
| CG16756 | 1 | 2.25e7 | 2.31e7 | – | 1.08e7 | 1.13e7 | inactive |
| CG13365 | 1 | 3.13e7 | 4.73e7 | 1.9 | 1.65e7 | 1.95e7 | inactive |
| Coq5 (Coenzyme Q5) | 1 | 4.07e7 | 4.05e7 | – | 2.03e7 | 1.97e7 | inactive |
| Coq5 (Coenzyme Q5) | 2 | 4.01e7 | 4.26e7 | – | 1.83e7 | 1.84e7 | inactive |

In a second layout: entries from further up
gene | reagent | calcium entry signal, replicate 1 (fluorescence units) | calcium entry signal, replicate 2 (fluorescence units) | entry to resting ratio | resting calcium signal, replicate 1 (fluorescence units) | resting calcium signal, replicate 2 (fluorescence units) | Call
Trf4 (TBP-related factor 4) | 1 | 3.95e7 | 3.79e7 | – | 1.82e7 | 1.67e7 | inactive
Xpac (Xeroderma pigmentosum group A-like) | 1 | 3.49e7 | 4.58e7 | – | 1.57e7 | 1.97e7 | inactive
lncRNA:CR43451 (long non-coding RNA:CR43451) | 1 | 4.90e7 | 2.95e7 | – | 2.44e7 | 1.58e7 | inactive
Polr2K (RNA polymerase II, I and III subunit K) | 1 | 3.13e7 | 1.91e7 | – | 1.44e7 | 1.01e7 | inactive

The list goes on.
| gene | reagent | calcium entry signal, replicate 1 (fluorescence units) | calcium entry signal, replicate 2 (fluorescence units) | entry to resting ratio | resting calcium signal, replicate 1 (fluorescence units) | resting calcium signal, replicate 2 (fluorescence units) | Call |
| --- | --- | --- | --- | --- | --- | --- | --- |
| trv (trivet) | 1 | 3.73e7 | 4.05e7 | – | 1.81e7 | 1.97e7 | inactive |
| trv (trivet) | 2 | 3.51e7 | 5.93e7 | – | 1.88e7 | 2.09e7 | inactive |
| trv (trivet) | 3 | 2.94e7 | 5.47e7 | – | 1.57e7 | 2.43e7 | inactive |
| trv (trivet) | 4 | 3.51e7 | 5.28e7 | – | 1.87e7 | 2.22e7 | inactive |
| CG32066 | 1 | 3.78e7 | 2.61e7 | – | 2.60e7 | 1.22e7 | inactive |
| CG32066 | 2 | 2.14e7 | 3.78e7 | – | 1.23e7 | 1.77e7 | inactive |
| CG15561 | 1 | 4.97e7 | 4.97e7 | – | 2.44e7 | 2.06e7 | inactive |
| Lis-1 (Lissencephaly-1) | 1 | 4.30e7 | 3.71e7 | – | 1.89e7 | 1.78e7 | inactive |
| CG8768 | 1 | 4.61e7 | 3.93e7 | – | 1.84e7 | 1.92e7 | inactive |
| CG5493 + CG5327 | 1 | 5.02e7 | 5.90e7 | – | 2.23e7 | 2.69e7 | inactive |
| CG34034 | 1 | 3.26e7 | 2.29e7 | – | 1.63e7 | 1.08e7 | inactive |
| CG17104 | 1 | 4.71e7 | – | – | 2.33e7 | – | inactive |
| CG31189 | 1 | 3.82e7 | 4.35e7 | – | 6.29e7 | 2.13e7 | inactive |
| Aplip1 (APPL-interacting protein 1) | 1 | 3.83e7 | 2.85e7 | – | 1.60e7 | 1.27e7 | inactive |
| Aplip1 (APPL-interacting protein 1) | 2 | 2.67e7 | 3.37e7 | – | 1.42e7 | 1.56e7 | inactive |
| Aplip1 (APPL-interacting protein 1) | 3 | 2.14e7 | 2.59e7 | – | 1.14e7 | 1.31e7 | inactive |
| Uck (Uridine-cytidine kinase) | 1 | 3.88e7 | 2.99e7 | – | 1.56e7 | 1.64e7 | inactive |
| Uck (Uridine-cytidine kinase) | 2 | 2.98e7 | 4.27e7 | – | 1.80e7 | 1.86e7 | inactive |
| Flad2 (Flavin adenine dinucleotide synthetase 2) | 1 | 3.12e7 | 2.23e7 | – | 1.50e7 | 1.07e7 | inactive |
| dnk (deoxyribonucleoside kinase) | 1 | 2.95e7 | 3.51e7 | – | 3.93e7 | 1.64e7 | inactive |
| CG43341 | 1 | 2.48e7 | 3.31e7 | – | 1.18e7 | 1.53e7 | inactive |
| Fim (Fimbrin) | 1 | 2.91e7 | 3.23e7 | – | 1.40e7 | 1.51e7 | inactive |
| erm (earmuff) | 1 | 4.11e7 | – | – | 2.36e7 | – | inactive |
| CG30414 | 1 | 3.69e7 | 4.83e7 | – | 1.97e7 | 2.05e7 | inactive |
| CG15073 | 1 | 5.57e7 | 5.41e7 | – | 2.30e7 | 2.63e7 | inactive |
| CG30383 | 1 | 2.86e7 | 3.39e7 | – | 1.47e7 | 1.65e7 | inactive |
| CG34326 (retired record) | 1 | 3.28e7 | 3.82e7 | – | 1.69e7 | 1.69e7 | inactive |
| GluRIA (Glutamate receptor IA) | 1 | 3.13e7 | 4.37e7 | – | 1.36e7 | 1.72e7 | inactive |
| twf (twinfilin) | 1 | 2.92e7 | 3.00e7 | – | 1.40e7 | 1.45e7 | inactive |
| CG8738 | 1 | 4.35e7 | 4.05e7 | – | 2.14e7 | 1.84e7 | inactive |
| tomboy20 | 1 | 3.44e7 | 3.40e7 | – | 1.70e7 | 1.72e7 | inactive |
| lectin-37Db | 1 | 4.10e7 | 4.96e7 | – | 2.04e7 | 2.19e7 | inactive |
| RpS7 (Ribosomal protein S7) | 1 | 1.08e7 | 8.64e6 | – | 7.92e6 | 6.46e6 | inactive |
| FMRFaR (FMRFamide Receptor) | 1 | 4.19e7 | 3.81e7 | – | 2.20e7 | 1.94e7 | inactive |
| CG9897 + asRNA:CR42742 | 1 | 5.16e7 | 4.94e7 | – | 2.46e7 | 2.30e7 | inactive |
| CG15517 | 1 | 4.92e7 | 6.44e7 | – | 2.36e7 | 2.64e7 | inactive |
| Pif2 (PFTAIRE-interacting factor 2) | 1 | 4.23e7 | 3.00e7 | – | 2.02e7 | 1.49e7 | inactive |
| Gr32a (Gustatory receptor 32a) | 1 | 3.53e7 | 5.18e7 | – | 1.72e7 | 2.10e7 | inactive |
